Test results: article PMC10977697
No constants are given. Whether binding was seen depends on the method and setting.

By UniProt entry, the sequences of proteins in these tests, tags left out. Residues count along the entry.
UniProt Q04721, residues 219-418: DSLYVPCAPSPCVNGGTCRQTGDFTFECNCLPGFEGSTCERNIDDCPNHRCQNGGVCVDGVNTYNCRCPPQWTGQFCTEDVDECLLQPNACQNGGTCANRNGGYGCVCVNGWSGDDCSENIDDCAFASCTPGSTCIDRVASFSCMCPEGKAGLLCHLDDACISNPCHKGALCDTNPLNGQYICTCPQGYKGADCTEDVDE

Biological target: Notch2Long (Notch2 EGF6-EGF12) (human) (UniProt Q04721)
Assay: SPR; both purified

Binder: GCGWTLWHCKQDSDCLAGCVCAPRWVCG (designed binder) [N2L.EET03.50]
- binding: no binding
